Some of the results follow.
Columns and labels:
Experiment in all cases: log2 fold change, soluble protein after heating vs DMSO (PISA); higher = thermal stabilisation; K562 lysate, 10 uM; active = over 0.2 and 3.5 SD of the protein, either way, in both replicates (recomputed)
vemurafenib = compound: CCCS(=O)(=O)Nc1ccc(F)c(C(=O)c2c[nH]c3ncc(-c4ccc(Cl)cc4)cc23)c1F [vemurafenib]
Method in brief: (§1)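 Following dounce homogenisation of K562 pellets in PBS pH 7.4 with 1 mM MgCl2, crude extract at 1 mg/mL protein was incubated for 30 min with 10 μM compound. Aliquots were then heated for 3 min over 48°C-58°C and pooled, NP-40 was added to 0.5% at 4°C, and soluble protein was recovered as the supernatant at 21,000xg for 90 min. Channel-sum-equalised TMTpro 16plex LC-MS/MS quantified this protein. Each value, from duplicates, is a log-two fold change in thermal stability relative to solvent controls.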

Amino acid sequences for entries named in this document (tags omitted). A change or cut given only in a name is not applied to a line headed by its entry.
UniProt Q8IUX4: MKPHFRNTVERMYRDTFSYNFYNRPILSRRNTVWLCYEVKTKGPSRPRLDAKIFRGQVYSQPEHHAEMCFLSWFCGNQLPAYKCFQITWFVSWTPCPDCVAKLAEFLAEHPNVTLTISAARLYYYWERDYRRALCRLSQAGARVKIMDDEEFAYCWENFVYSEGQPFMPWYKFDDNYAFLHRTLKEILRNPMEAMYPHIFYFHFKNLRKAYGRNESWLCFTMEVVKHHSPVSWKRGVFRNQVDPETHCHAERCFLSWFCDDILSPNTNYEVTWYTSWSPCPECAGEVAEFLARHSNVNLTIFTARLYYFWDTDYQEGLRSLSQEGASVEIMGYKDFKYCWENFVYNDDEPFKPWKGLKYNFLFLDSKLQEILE
UniProt Q93070: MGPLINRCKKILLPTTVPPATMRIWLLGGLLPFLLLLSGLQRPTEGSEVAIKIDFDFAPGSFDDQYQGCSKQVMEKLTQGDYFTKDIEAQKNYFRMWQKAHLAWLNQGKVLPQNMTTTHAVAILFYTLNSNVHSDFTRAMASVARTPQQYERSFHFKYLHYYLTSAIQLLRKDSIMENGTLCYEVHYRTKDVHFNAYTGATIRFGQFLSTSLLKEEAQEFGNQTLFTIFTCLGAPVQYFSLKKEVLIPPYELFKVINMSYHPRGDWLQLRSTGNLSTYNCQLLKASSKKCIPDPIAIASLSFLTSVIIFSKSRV
UniProt O96018: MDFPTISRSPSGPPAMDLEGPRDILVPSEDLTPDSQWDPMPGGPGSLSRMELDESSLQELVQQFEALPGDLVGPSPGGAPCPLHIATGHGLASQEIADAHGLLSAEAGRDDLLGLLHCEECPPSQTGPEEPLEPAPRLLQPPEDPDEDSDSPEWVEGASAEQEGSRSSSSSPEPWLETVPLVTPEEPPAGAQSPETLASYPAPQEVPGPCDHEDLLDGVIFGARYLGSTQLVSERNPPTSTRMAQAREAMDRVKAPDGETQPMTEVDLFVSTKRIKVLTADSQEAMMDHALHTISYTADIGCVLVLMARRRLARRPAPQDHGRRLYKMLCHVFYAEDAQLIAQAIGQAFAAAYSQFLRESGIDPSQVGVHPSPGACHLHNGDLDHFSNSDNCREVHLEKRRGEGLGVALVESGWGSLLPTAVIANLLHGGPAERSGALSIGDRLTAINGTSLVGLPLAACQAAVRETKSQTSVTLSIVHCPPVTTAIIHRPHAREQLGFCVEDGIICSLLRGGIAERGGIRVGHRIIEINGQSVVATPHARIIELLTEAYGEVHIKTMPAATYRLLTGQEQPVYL
UniProt Q66PJ3: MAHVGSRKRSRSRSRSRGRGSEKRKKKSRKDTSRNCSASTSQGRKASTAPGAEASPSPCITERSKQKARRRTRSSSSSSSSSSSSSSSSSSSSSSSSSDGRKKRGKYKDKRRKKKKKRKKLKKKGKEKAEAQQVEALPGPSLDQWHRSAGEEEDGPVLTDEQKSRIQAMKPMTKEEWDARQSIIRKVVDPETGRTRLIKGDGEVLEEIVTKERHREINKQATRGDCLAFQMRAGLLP
UniProt Q9Y576: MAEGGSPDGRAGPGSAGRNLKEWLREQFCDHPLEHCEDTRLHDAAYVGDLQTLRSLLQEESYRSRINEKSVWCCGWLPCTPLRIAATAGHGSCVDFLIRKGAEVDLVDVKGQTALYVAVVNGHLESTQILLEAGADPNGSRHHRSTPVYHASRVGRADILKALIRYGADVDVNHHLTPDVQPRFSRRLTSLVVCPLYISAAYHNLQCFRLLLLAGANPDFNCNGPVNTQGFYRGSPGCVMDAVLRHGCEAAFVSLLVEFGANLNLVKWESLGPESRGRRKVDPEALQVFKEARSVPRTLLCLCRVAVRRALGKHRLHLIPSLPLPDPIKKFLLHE
UniProt P29374: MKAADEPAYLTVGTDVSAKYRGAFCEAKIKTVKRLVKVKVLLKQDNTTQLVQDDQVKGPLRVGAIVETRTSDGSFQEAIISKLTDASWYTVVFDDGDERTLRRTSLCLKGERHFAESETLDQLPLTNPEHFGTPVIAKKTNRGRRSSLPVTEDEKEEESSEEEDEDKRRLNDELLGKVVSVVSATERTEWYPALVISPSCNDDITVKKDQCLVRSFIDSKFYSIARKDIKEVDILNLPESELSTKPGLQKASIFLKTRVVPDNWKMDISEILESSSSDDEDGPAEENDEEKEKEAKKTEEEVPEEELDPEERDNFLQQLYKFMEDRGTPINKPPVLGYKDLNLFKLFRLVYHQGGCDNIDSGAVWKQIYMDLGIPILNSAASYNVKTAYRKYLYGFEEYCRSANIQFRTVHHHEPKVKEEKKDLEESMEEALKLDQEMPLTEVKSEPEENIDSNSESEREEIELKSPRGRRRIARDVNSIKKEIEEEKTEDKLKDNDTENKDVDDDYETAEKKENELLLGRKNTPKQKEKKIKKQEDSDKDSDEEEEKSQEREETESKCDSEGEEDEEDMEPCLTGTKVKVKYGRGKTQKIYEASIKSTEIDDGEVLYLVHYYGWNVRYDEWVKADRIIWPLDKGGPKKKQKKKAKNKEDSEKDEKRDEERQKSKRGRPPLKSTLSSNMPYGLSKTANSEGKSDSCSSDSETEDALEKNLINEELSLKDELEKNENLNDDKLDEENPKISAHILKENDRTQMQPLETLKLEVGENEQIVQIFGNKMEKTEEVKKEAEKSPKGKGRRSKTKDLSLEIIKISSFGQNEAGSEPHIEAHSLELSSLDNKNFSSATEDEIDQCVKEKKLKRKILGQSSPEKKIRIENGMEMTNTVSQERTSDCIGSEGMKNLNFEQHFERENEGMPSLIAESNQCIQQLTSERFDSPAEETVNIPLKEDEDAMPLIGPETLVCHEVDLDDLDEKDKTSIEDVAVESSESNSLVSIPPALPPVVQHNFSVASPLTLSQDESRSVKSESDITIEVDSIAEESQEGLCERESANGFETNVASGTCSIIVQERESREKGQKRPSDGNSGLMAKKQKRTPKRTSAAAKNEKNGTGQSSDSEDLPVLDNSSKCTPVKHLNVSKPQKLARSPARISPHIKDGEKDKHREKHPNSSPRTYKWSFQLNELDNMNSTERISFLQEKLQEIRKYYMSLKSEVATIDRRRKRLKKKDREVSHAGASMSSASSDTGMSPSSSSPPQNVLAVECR
UniProt P53367: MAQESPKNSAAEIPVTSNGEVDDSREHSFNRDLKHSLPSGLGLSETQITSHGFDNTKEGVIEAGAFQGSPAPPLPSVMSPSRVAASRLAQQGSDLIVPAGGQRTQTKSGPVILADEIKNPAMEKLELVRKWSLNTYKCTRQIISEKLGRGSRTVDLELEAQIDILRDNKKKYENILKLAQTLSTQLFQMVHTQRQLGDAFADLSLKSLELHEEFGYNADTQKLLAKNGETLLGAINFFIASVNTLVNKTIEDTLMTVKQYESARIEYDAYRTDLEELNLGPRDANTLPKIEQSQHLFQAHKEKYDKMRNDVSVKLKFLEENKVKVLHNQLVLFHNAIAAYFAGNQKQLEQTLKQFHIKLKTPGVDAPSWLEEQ
UniProt Q9H6L4: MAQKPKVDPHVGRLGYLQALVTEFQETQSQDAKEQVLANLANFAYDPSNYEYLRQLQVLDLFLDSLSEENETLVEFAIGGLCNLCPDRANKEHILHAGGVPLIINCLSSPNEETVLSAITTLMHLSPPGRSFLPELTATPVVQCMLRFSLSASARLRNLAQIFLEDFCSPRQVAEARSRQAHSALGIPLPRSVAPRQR
UniProt P02656: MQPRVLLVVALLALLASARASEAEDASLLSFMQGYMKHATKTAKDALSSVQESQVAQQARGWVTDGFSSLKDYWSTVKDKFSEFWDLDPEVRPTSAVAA
UniProt Q9NP61: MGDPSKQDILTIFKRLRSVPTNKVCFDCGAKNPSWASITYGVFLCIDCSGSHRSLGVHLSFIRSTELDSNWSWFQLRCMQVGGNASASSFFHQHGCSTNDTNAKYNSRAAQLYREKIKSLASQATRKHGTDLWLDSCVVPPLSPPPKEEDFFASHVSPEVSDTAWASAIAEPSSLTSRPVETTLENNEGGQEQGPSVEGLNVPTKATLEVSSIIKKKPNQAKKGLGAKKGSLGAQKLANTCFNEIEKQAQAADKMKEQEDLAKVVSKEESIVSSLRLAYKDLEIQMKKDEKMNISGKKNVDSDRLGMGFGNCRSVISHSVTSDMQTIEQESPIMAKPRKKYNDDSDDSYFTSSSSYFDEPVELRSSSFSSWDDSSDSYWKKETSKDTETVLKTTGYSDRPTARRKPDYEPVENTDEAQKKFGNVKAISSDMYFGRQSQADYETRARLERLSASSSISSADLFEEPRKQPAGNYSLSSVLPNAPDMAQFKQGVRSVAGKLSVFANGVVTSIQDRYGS
UniProt Q8N8R7: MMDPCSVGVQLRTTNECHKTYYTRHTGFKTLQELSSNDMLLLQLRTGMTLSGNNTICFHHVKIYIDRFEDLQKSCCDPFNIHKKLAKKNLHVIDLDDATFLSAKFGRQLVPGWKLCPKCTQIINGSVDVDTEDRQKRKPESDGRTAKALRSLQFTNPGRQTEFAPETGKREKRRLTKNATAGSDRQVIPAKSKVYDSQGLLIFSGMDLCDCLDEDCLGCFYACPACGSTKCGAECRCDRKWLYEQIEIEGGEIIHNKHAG
UniProt Q8NEU8: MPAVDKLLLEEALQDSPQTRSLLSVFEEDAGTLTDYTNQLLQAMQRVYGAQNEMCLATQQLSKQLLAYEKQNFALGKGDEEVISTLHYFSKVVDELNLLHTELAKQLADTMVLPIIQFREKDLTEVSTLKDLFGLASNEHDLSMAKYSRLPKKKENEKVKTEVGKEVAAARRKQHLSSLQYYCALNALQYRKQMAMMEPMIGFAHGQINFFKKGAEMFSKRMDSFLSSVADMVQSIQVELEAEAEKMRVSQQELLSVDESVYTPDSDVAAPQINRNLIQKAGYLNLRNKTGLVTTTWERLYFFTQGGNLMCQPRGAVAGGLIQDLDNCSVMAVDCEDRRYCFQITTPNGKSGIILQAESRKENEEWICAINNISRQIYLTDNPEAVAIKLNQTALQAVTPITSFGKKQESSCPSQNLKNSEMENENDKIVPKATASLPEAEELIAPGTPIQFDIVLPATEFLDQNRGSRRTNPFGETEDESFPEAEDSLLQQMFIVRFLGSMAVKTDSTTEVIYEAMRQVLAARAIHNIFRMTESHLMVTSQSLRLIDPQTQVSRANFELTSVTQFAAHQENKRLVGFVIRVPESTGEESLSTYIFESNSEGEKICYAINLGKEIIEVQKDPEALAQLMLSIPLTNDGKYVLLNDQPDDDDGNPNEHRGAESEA
UniProt Q96B67: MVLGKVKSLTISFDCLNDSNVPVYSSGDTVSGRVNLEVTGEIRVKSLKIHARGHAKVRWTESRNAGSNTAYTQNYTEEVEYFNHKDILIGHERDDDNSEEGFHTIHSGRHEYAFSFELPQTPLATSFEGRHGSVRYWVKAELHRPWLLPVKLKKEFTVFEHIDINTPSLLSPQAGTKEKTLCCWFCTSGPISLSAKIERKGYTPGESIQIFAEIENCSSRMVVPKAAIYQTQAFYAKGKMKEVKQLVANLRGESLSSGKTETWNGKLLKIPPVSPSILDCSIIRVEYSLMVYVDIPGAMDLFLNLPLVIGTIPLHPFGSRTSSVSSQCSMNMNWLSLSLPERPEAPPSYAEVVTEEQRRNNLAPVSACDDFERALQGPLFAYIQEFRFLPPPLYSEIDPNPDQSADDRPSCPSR
UniProt Q9P2N2: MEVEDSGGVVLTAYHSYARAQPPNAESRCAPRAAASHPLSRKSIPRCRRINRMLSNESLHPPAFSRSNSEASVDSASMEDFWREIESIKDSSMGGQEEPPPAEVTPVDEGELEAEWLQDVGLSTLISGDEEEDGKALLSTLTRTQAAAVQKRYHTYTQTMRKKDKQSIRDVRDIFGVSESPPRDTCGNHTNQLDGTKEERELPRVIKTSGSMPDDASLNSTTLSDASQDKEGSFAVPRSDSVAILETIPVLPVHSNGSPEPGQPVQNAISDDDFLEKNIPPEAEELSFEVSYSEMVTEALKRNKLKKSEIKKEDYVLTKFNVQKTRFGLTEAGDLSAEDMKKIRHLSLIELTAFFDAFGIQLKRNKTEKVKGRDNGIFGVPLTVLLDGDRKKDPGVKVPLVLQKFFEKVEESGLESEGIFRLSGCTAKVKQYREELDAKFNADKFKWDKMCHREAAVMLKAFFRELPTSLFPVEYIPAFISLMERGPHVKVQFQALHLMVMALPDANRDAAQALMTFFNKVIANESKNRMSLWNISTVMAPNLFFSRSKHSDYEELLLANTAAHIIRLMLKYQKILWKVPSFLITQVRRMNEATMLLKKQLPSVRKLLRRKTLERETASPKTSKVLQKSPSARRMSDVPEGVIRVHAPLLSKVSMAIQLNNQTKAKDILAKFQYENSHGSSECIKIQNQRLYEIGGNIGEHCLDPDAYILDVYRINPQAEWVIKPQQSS

[1] = compound: CCCS(=O)(=O)Nc1ccc(F)c(C(=O)c2c[nH]c3ncc(Cl)cc23)c1F
Method in brief: as §1

barasertib = compound: CCN(CCCOc1ccc2c(Nc3cc(CC(=O)Nc4cccc(F)c4)[nH]n3)ncnc2c1)CCOP(=O)(O)O [barasertib]
Method in brief: as §1

[2] = compound: CC[C@@H]1C(=O)N(C)c2cnc(Nc3ccc(C(=O)NC4CCN(C)CC4)cc3OC)nc2N1C1CCCC1
Method in brief: as §1

volasertib = compound: CC[C@@H]1C(=O)N(C)c2cnc(Nc3ccc(C(=O)N[C@H]4CC[C@H](N5CCN(CC6CC6)CC5)CC4)cc3OC)nc2N1C(C)C [volasertib]
Method in brief: as §1

[3] = compound: CCn1cc(-c2ccnc3[nH]c(-c4cccc(CN(C)C)c4)cc23)c(-c2ccc(NC(=O)N(C)C)cc2)n1
Method in brief: as §1

[4] = compound: CN1CCC(CNc2ccc3ncc(-c4cccc(OC(F)(F)F)c4)n3n2)CC1
Method in brief: as §1

sotrastaurin = compound: CN1CCN(c2nc(C3=C(c4c[nH]c5ccccc45)C(=O)NC3=O)c3ccccc3n2)CC1 [sotrastaurin]
Method in brief: as §1

alvocidib = compound: CN1CC[C@H](c2c(O)cc(O)c3c(=O)cc(-c4ccccc4Cl)oc23)[C@H](O)C1 [alvocidib]
Method in brief: as §1

[5] = compound: CNC(=O)C1=CC=CC=C1NC2=NC(=NC=C2Cl)NC3=C(C=C(C=C3)N4CCOCC4)OC
Method in brief: as §1

defactinib = compound: CNC(=O)c1ccc(Nc2ncc(C(F)(F)F)c(NCc3nccnc3N(C)S(C)(=O)=O)n2)cc1 [defactinib]
Method in brief: as §1

encorafenib = compound: COC(=O)N[C@@H](C)CNc1nccc(-c2cn(C(C)C)nc2-c2cc(Cl)cc(NS(C)(=O)=O)c2F)n1 [encorafenib]
Method in brief: as §1

[6] = compound: COC(=O)[C@H](CCSC)NC(=O)C1=C(C=C(C=C1)NC[C@H](CS)N)C2=CC=CC=C2
Method in brief: as §1

alisertib = compound: COc1cc(Nc2ncc3c(n2)-c2ccc(Cl)cc2C(c2c(F)cccc2OC)=NC3)ccc1C(=O)O [alisertib]
Method in brief: as §1

[7] = compound: COc1cc2nc(-c3cc(F)ccc3O)nc(N[C@@H]3CNC[C@H]3C(C)(C)O)c2cc1OC
Method in brief: as §1

gefitinib = compound: COc1cc2ncnc(Nc3ccc(F)c(Cl)c3)c2cc1OCCCN1CCOCC1 [gefitinib]
Method in brief: as §1

[8] = compound: CCn1c(C(=O)N(C2CC2)C2CC2)cc2c3c(ncn3C)c(Nc3cc(C)n(C)n3)nc21
Method in brief: as §1

Tubastatin A = compound: CN1CCc2c(c3ccccc3n2Cc2ccc(C(=O)NO)cc2)C1 [Tubastatin A]
Method in brief: as §1

saracatinib = compound: CN1CCN(CCOc2cc(OC3CCOCC3)c3c(Nc4c(Cl)ccc5c4OCO5)ncnc3c2)CC1 [saracatinib]
Method in brief: as §1

[9] = compound: CNc1nc(-c2ccc3c(N)n[nH]c3c2)cc(N2C[C@@H](C(=O)NC3CCCCC3)CC[C@H]2C)n1
Method in brief: as §1

Measured: log2 fold change

APOBEC3F (UniProt Q8IUX4)
inactive: vemurafenib -0.001 | [1] 0.005 | barasertib 0.025 | [2] 0.08 | volasertib -0.06 | [3] -0.163 | [4] 0.066 | sotrastaurin 0.008 | alvocidib -0.004 | [5] -0.114 | defactinib -0.053 | encorafenib 0.102 | [6] 0 | alisertib -0.025 | [7] 0.066 | gefitinib 0.014

ART4 (UniProt Q93070)
inactive: vemurafenib -0.058 | barasertib -0.019 | [2] 0.029 | [3] -0.025 | [4] 0.017 | alvocidib 0.024 | defactinib -0.041 | encorafenib 0.001 | [6] -0.088

APBA3 (UniProt O96018)
inactive: vemurafenib 0.056 | [1] -0.038 | [2] -0.067 | volasertib -0.258 | [8] 0.016 | sotrastaurin -0.123 | Tubastatin A -0.223 | [5] -0.056 | defactinib 0.085 | encorafenib 0.105 | [6] 0.177 | [7] 0.07

ARL6IP4 isoform 4 (UniProt Q66PJ3)
inactive: vemurafenib -0.037 | [1] -0.097 | volasertib -0.019 | [3] 0.056 | [4] -0.197 | alvocidib -0.191 | defactinib -0.091 | [7] -0.125

ASB1 (UniProt Q9Y576)
inactive: vemurafenib 0.227 | barasertib -0.016 | [2] 0.002 | [8] 0.131 | [3] 0.216 | [4] -0.255 | sotrastaurin 0.08 | alvocidib 0.097 | Tubastatin A -0.013 | defactinib -0.025 | encorafenib 0.322 | [6] -0.151 | alisertib -0.039 | gefitinib 0.009

ARID4A (UniProt P29374)
inactive: vemurafenib -0.077 | [8] -0.031 | [3] 0.06 | [4] 0 | saracatinib 0 | alvocidib -0.212 | Tubastatin A -0.067 | [5] -0.015 | defactinib -0.171 | [9] 0.139 | alisertib 0.08 | gefitinib 0.007

Fetched one by one from the list above (2):
ART4 (UniProt Q93070)
inactive: vemurafenib -0.058 | barasertib -0.019 | [2] 0.029 | [3] -0.025 | [4] 0.017 | alvocidib 0.024 | defactinib -0.041 | encorafenib 0.001 | [6] -0.088

ASB1 (UniProt Q9Y576)
inactive: vemurafenib 0.227 | barasertib -0.016 | [2] 0.002 | [8] 0.131 | [3] 0.216 | [4] -0.255 | sotrastaurin 0.08 | alvocidib 0.097 | Tubastatin A -0.013 | defactinib -0.025 | encorafenib 0.322 | [6] -0.151 | alisertib -0.039 | gefitinib 0.009

Remaining list, next part:

ARFIP1 isoform 2 (UniProt P53367)
inactive: vemurafenib 0.038 | [1] 0.042 | barasertib 0.02 | [2] 0.085 | volasertib -0.025 | [8] -0.119 | [3] 0.068 | [4] -0.012 | saracatinib -0.018 | alvocidib 0.129 | Tubastatin A 0.084 | defactinib 0.149 | [9] -0.089 | encorafenib -0.11 | [6] 0.049 | alisertib 0.045 | [7] -0.007 | gefitinib 0.443

ARMC7 (UniProt Q9H6L4)
inactive: vemurafenib -0.057 | saracatinib -0.07 | sotrastaurin -0.002 | defactinib -0.285 | [9] 0.027

APOC3 (UniProt P02656)
inactive: vemurafenib 0.22 | [2] 0.117 | saracatinib 0.18 | sotrastaurin -0.312 | defactinib -0.07 | [9] 0.222 | encorafenib -0.064 | [6] 0.045

ARFGAP3 (UniProt Q9NP61)
inactive: vemurafenib -0.038 | [1] 0 | barasertib -0.012 | [2] 0.119 | volasertib 0.033 | [8] -0.013 | [3] -0.009 | [4] 0.014 | saracatinib -0.008 | sotrastaurin 0 | alvocidib -0.014 | Tubastatin A -0.02 | [5] 0.035 | defactinib -0.005 | [9] 0.059 | encorafenib 0.072 | [6] -0.003 | alisertib 0.019 | [7] 0.01 | gefitinib 0.041

APC (UniProt P25054)
inactive: vemurafenib -0.185 | barasertib 0.034 | [2] 0.002 | [8] 0.065 | [3] -0.012 | [4] 0.036 | saracatinib 0.029 | sotrastaurin -0.03 | alvocidib -0.117 | Tubastatin A -0.055 | [5] -0.01 | defactinib -0.128 | [9] -0.089 | encorafenib 0.11 | [6] 0.101

ARL14EP (UniProt Q8N8R7)
inactive: vemurafenib -0.055 | barasertib -0.008 | [8] -0.009 | [3] -0.011 | [4] 0.012 | saracatinib 0.081 | sotrastaurin 0.046 | alvocidib 0.007 | Tubastatin A -0.092 | [5] 0.077 | defactinib 0.102 | [9] -0.007 | alisertib -0.034 | gefitinib 0.053

ARHGAP4 isoform 2 (UniProt P98171)
inactive: vemurafenib -0.023 | [1] 0.031 | barasertib 0.007 | [2] 0.01 | volasertib -0.06 | [8] 0.047 | [3] 0.124 | [4] -0.011 | saracatinib -0.029 | sotrastaurin -0.05 | alvocidib 0.016 | Tubastatin A -0.069 | [5] -0.004 | defactinib -0.071 | [9] -0.031 | encorafenib 0.035 | [6] 0.089 | alisertib 0 | [7] -0.004 | gefitinib -0.023

APPL2 isoform 3 (UniProt Q8NEU8)
inactive: vemurafenib 0.045 | [1] 0.043 | barasertib -0.015 | [2] 0.044 | volasertib -0.009 | [8] 0.258 | [3] 0.187 | [4] 0.146 | saracatinib 0.051 | sotrastaurin 0.032 | alvocidib 0.026 | Tubastatin A -0.071 | [5] -0.009 | defactinib 0.048 | [9] -0.14 | encorafenib -0.006 | [6] 0.066 | [7] 0.021

ASAP2 (UniProt O43150)
inactive: [1] 0.004 | volasertib -0.077 | [7] 0.172

ARMC5 (UniProt Q96C12)
inactive: [3] 0.156 | [4] 0 | alvocidib 0.015

ARRDC3 (UniProt Q96B67)
inactive: [5] 0.013

ARHGAP28 (UniProt Q9P2N2)
inactive: [1] -0.041 | barasertib -0.03 | volasertib -0.056 | saracatinib -0.009 | [5] 0.054 | [9] 0.122 | [7] 0.044

APP (UniProt P05067)
inactive: barasertib -0.104 | [2] 0.054 | [3] 0.024 | [4] -0.03 | saracatinib 0 | sotrastaurin 0.016 | alvocidib 0.066 | [5] -0.011 | [9] -0.098 | encorafenib 0.078 | [6] -0.013 | alisertib -0.016 | gefitinib 0.039

Reference: the supplement of paper PMC10849652
